# Measured values from PubChem BioAssay (NCATS).
# By UniProt entry, the sequences of proteins in these tests, tags left out. Where a name states a change or a piece, a line headed by the entry shows the natural chain unless it says otherwise.
# UniProt O15648: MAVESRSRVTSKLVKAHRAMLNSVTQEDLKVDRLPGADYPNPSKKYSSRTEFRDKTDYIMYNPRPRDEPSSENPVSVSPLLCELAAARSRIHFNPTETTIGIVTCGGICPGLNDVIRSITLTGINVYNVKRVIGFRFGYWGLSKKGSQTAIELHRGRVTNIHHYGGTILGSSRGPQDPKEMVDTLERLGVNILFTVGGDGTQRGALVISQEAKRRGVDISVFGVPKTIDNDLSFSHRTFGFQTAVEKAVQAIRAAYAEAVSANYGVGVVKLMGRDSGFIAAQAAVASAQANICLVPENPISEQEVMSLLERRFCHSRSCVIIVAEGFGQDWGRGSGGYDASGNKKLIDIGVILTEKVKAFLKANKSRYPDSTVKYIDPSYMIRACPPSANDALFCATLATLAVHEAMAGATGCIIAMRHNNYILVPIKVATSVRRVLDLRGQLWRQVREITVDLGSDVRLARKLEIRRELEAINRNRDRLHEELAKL
# UniProt P54132: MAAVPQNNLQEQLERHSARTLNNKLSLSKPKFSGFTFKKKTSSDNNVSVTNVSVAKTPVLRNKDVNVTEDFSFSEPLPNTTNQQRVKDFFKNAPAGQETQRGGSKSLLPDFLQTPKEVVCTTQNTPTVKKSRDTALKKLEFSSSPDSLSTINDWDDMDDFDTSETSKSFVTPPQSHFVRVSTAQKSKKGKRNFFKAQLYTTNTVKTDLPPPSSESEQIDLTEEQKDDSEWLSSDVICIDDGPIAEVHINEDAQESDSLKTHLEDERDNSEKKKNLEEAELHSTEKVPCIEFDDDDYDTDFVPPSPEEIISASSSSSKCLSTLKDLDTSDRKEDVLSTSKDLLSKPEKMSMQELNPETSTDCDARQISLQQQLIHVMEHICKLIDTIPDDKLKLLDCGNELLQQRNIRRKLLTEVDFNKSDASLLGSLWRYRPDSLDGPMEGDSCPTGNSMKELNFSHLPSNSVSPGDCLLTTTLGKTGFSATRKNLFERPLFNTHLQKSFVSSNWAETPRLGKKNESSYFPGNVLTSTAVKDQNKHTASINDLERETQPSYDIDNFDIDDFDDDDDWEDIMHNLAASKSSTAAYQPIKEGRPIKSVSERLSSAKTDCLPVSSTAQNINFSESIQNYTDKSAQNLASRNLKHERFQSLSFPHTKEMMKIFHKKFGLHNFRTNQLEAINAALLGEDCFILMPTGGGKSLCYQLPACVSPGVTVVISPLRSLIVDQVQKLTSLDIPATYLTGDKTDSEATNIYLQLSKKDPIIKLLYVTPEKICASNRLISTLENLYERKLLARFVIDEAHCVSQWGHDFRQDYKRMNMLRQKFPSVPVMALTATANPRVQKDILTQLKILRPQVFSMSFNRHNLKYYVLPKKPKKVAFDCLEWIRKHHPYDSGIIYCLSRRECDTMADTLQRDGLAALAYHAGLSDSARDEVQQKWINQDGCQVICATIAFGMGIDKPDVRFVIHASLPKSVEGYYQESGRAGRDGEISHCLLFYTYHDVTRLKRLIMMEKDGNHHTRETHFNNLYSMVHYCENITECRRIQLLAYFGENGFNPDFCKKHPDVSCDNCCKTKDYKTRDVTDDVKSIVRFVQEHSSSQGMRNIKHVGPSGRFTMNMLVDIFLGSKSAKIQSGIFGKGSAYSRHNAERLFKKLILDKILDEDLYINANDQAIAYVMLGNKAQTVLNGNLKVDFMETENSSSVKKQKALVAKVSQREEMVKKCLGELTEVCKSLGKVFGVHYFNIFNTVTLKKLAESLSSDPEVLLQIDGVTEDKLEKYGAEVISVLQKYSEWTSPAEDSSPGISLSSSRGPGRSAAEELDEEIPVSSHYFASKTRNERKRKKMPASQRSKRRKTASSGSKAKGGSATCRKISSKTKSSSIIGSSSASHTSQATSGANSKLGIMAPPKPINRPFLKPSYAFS
# UniProt P07203, whole entry, looked up: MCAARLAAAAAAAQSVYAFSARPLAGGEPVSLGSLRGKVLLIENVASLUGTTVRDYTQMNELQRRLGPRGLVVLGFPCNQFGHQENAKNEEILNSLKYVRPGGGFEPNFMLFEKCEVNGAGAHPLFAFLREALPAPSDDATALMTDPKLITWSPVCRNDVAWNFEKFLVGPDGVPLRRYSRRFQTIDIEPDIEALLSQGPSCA
# UniProt P08684, whole entry, looked up: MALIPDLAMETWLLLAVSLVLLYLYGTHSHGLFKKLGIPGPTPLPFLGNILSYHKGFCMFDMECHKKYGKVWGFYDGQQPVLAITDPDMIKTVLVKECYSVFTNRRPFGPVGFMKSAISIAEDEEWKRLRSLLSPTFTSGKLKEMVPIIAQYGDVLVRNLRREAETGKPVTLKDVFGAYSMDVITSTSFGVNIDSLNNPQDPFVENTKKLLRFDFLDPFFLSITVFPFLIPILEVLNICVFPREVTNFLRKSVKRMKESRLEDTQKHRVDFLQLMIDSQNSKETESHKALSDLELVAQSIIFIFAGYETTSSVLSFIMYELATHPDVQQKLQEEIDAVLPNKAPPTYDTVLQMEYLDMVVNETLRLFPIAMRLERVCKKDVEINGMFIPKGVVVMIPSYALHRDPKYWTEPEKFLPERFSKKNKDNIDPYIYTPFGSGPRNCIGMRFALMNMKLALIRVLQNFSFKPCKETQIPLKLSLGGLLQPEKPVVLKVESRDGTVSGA
# This list was built around the results that the source calls inconclusive (neither active nor inactive); the mix of calls is not that of the screen. For part of these data: Potencies beside an inconclusive call are fits to weak or partial responses and may not hold up. Activity calls are given as the source filed them. Unless noted, the call rests on the fitted dose curve; in most records, active means well fitted curve in the direction sought with a large enough effect; inconclusive means small, poorly fitted or top-dose-only effect, or another doubt; inactive means no such curve, though single readings can be large; an effect the other way counts as inactive or inconclusive.
# Assays:
# [1] = target: ATP-dependent 6-phosphofructokinase (Trypanosoma brucei brucei) (UniProt O15648); assay: qHTS Validation Assay to Find Inhibitors of T. brucei phosphofructokinase (AID 485368); settings: activity change, negative = inhibition: at 57.5 µM (top of the series); further: potency means the concentration at half of the fitted maximal effect
# Summary of the method: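 Steps: substrate mix (0.5 mM F6P, 0.1 mM ATP, MgCl2, TEA pH 8.0); compound; 1.25 nM T. brucei PFK; 45 min RT; ATP depletion 10 min; ADP-to-ATP detection 10 min; luminescence read; curve fitting and classification.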
# [2] = qHTS of pediatric cancer cell lines to identify multiple opportunities for drug repurposing: Primary screen for BT-37 cells (AID 1347094); further: potency means the concentration at half of the fitted maximal effect
# Summary of the method: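 CRCs from 8- or 11-point titrations (lowest final 0.59 nM NPC, 0.78 nM MIPE). Cell viability: CellTiter-Glo after 48 h incubation, 15 min room-temperature development, luminescence imaging.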
# [3] = qHTS to identify inhibitors of the type 1 interferon - major histocompatibility complex class I in skeletal muscle: primary screen against the NCATS Pharmaceutical Collection (AID 1347407);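 further: luminescence of HiBiT knocked into endogenous HLA-B as interferon-induced MHC class I level; potency means the concentration at half of the fitted maximal effect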
# Summary of the method: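 Cells were seeded with 4 ng/ml IFN-beta, incubated 1 h, then dosed with compounds over eight 1:5 steps up to 46 uM final. After 24 h at 37 C, HiBiT lytic reagent was added and luminescence read after 10 min lysis in the dark.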
# [4] = target: RecQ-like DNA helicase BLM (Homo sapiens) (UniProt P54132); assay: qHTS Validation Assay for Inhibitors of Bloom's syndrome helicase (BLM) (AID 2364); further: potency means the concentration at half of the fitted maximal effect
# Summary of the method: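 BLM 50 nM in 25 mM Tris-HCl pH 8.0, 5 mM NaCl, 2 mM MgCl2, 1 mM DTT, 0.01% Tween-20, 2.5 ug/ml poly(dI-dC); 15 min cpd preinc, RT. Start: 200 nM forked DNA + 2 mM ATP (final). TAMRA read, 2 reads 2 h apart.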
# [5] = qHTS of pediatric cancer cell lines to identify multiple opportunities for drug repurposing: Primary screen for U-2 OS cells (AID 1347096); further: nearly all actives have a fitted effect of over 50% in size; further: potency means the concentration at half of the fitted maximal effect
# Summary of the method: (§1)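 Cells (500-1,000/well) in growth media were settled 5 h at 37 degrees C, then given compounds for 48 h. Viability was read as CellTiter-Glo luminescence. Primary runs used MIPE at 11 points (0.78 nM-46 µM) and NPC at 8 points (0.59 nM-46 µM); follow-ups used 11 points.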
# [6] = qHTS of pediatric cancer cell lines to identify multiple opportunities for drug repurposing: Primary screen for LAN-5 cells (AID 1347100); further: potency means the concentration at half of the fitted maximal effect
# Summary of the method: as §1
# 7G8 = assay: qHTS profiling for inhibitors of Plasmodium falciparum proliferation (AID 504749); further: nearly all actives have a fitted effect of over 60% in size; further: potency means the concentration at half of the fitted maximal effect; settings: P. falciparum in erythrocytes, SYBR Green DNA, 72 h; series mostly up to 28.7 µM
# Summary of the method: (§2)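 P. falciparum-infected erythrocytes (0.3% parasitemia, 2.5% hematocrit final) were exposed to compounds for 72 h at 37 C in 5% CO2, then lysed with SYBR Green buffer overnight at room temperature; parasite DNA fluorescence was normalized to artemisinin and DMSO controls.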
# CP217 = assay: as above; settings: P. falciparum in erythrocytes, SYBR Green DNA, 72 h; series mostly up to 28.7 µM
# Summary of the method: as §2
# CP238 = assay: as above; settings: P. falciparum in erythrocytes, SYBR Green DNA, 72 h; series mostly up to 28.7 µM
# Summary of the method: as §2
# CP250 = assay: as above; settings: P. falciparum in erythrocytes, SYBR Green DNA, 72 h; series mostly up to 28.7 µM
# Summary of the method: as §2
# P94_40 = assay: as above; settings: P. falciparum in erythrocytes, SYBR Green DNA, 72 h; series mostly up to 28.7 µM
# Summary of the method: as §2
# TAB109 = assay: as above; settings: P. falciparum in erythrocytes, SYBR Green DNA, 72 h; series mostly up to 28.7 µM
# Summary of the method: as §2
# [7] = target: Glutathione peroxidase 1 (Homo sapiens) (UniProt P07203); assay: Primary qHTS Assay for Inhibitors of Recombinant Selenoprotein Glutathione Peroxidase 1 (GPX1) (AID 1845191); further: nearly all actives have a fitted effect of over 65% in size; further: potency means the concentration at half of the fitted maximal effect
# Summary of the method: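 Recombinant GPX1 (10 nM final) was preincubated with compound for 30 min at room temperature, then reacted with 1 mM GSH, 0.5 mM CHP, 0.5 mM NADPH and 100 nM glutathione reductase; NADPH fluorescence (340/450 nm) was read at 0 and 15 min.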
# WaGa = assay: qHTS assay to identify novel small-molecules to repurpose for Merkel cell carcinoma treatment (AID 1296009); settings: MCC and control cell lines, CellTiter-Glo viability, 72 h; series mostly up to 46 µM; further: nearly all actives have a fitted effect of over 60% in size
# Summary of the method: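 Cells exposed to NPC (8-point) and MIPE (11-point) compound dilutions for 72 hr at 37 degree celsius; viability read by CellTiter-Glo luminescence, normalized to no-cell and DMSO in-plate controls.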
# [8] = target: Cytochrome P450 3A4 (Homo sapiens) (UniProt P08684); assay: Cytochrome P450 family 3 subfamily A member 4 (CYP3A4) small molecule antagonists: luciferase qHTS assay (AID 1645841; active means well fitted curve in the direction sought with a large enough effect in the repeat runs; inconclusive means weak or mixed curves; inactive means no such curve, though single readings can be large; an effect the other way counts as inactive or inconclusive; further: potency means the concentration at half of the fitted maximal effect; nearly all actives have a fitted effect of over 45% in size)
# Summary of the method: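 P450-Glo CYP3A4 enzyme with proluciferin substrate was preincubated with DMSO-dissolved compounds for 10 min at room temperature. NADPH regeneration solution started a 1 h reaction. Detection reagent stopped it, and luminescence was read after 20 min.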
# [9] = tested on: Nanoluciferase (engineered Oplophorus gracilirostris luciferase); assay: Primary Nanoluciferase (NLuc) qHTS assay for identification of artifact compounds. (AID 1845222); further: potency means the concentration at half of the fitted maximal effect
# Summary of the method: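 Concentration-response data were obtained by luminescence after 5 min with Nano-Glo substrate at 1:100. The enzyme was diluted S16 NLuc-expressing cell medium, preincubated with compound for 15 min at RT. Curves were fitted with a 4-parameter Hill model.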
# CP203 = assay: qHTS profiling for inhibitors of Plasmodium falciparum proliferation (AID 504749); further: nearly all actives have a fitted effect of over 60% in size; further: potency means the concentration at half of the fitted maximal effect; settings: P. falciparum in erythrocytes, SYBR Green DNA, 72 h; series mostly up to 28.7 µM
# Summary of the method: as §2
# ICS = assay: as above; settings: P. falciparum in erythrocytes, SYBR Green DNA, 72 h; series mostly up to 28.7 µM
# Summary of the method: as §2
# W2 = assay: as above; settings: P. falciparum in erythrocytes, SYBR Green DNA, 72 h; series mostly up to 28.7 µM
# Summary of the method: as §2
# CP291 = assay: as above; settings: P. falciparum in erythrocytes, SYBR Green DNA, 72 h; series mostly up to 28.7 µM
# Summary of the method: as §2
smiles,measurement,setting,value
CC[C@H]1CN2CCc3cc(OC)c(OC)cc3[C@@H]2C[C@@H]1C[C@H]1NCCc2cc(OC)c(OC)cc21,Potency,[1],inactive
same,Potency,[2],active: 0.389 µM
same,Potency,[3],active: 0.264 µM
Fc1ccc(C(c2ccc(F)cc2)N2CCN(C/C=C/c3ccccc3)CC2)cc1,Potency,[4],"inconclusive: 35.5 µM [inhibitor, partial curve, poor fit]"
same,Potency,[1],"inconclusive: 8.49 µM [falling, single point]"
same,Potency,[2],"inconclusive: 30.9 µM [cytotoxic, single point]"
same,Potency,[5],"inconclusive: 16.8 µM [cytotoxic, partial curve, poor fit]"
same,Potency,[6],"inconclusive: 26.6 µM [cytotoxic, single point]"
same,Potency,7G8,active: 4.47 µM
same,Potency,CP217,"inconclusive: 11.2 µM [inhibitor, single point]"
same,Potency,CP238,"inconclusive: 17.8 µM [inhibitor, single point]"
same,Potency,CP250,"inconclusive: 12.6 µM [inhibitor, single point]"
same,Potency,P94_40,"inconclusive: 10 µM [inhibitor, single point]"
same,Potency,TAB109,"inconclusive: 11.2 µM [inhibitor, single point]"
CC1=C(CO)C(=O)O[C@@H]([C@@H](C)[C@H]2CC[C@H]3[C@@H]4C[C@H]5O[C@]56[C@@H](O)C=CC(=O)[C@]6(C)[C@H]4CC[C@]23C)C1,Potency,[7],inactive
Nc1ccn(C[C@@H](CO)OCP(=O)(O)O)c(=O)n1,Potency,WaGa,inactive
COC(=O)/C=C(/C)N,Potency,WaGa,inactive
COc1cc(N2CCC(N(C)C)CC2)ccc1Nc1ncc(Cl)c(Nc2ccccc2P(C)(C)=O)n1,Potency,[8],"inconclusive: 23.9 µM [falling, single point]"
Cc1ccccc1C#Cc1ccc(CCC(=O)O)cc1,Potency,[9],"inconclusive: 21.3 µM [inhibitor, partial curve, poor fit]"
CC(C)(C)C(=O)OCOP(=O)(COCCn1cnc2c(N)ncnc21)OCOC(=O)C(C)(C)C,Potency,7G8,"inconclusive: 15.8 µM [inhibitor, single point]"
same,Potency,CP203,"inconclusive: 12 µM [inhibitor, partial curve, poor fit]"
same,Potency,CP217,"inconclusive: 10 µM [inhibitor, single point]"
same,Potency,CP238,"inconclusive: 17.8 µM [inhibitor, single point]"
same,Potency,CP250,"inconclusive: 7.08 µM [inhibitor, partial curve, poor fit]"
same,Potency,ICS,"inconclusive: 15.8 µM [inhibitor, single point]"
same,Potency,P94_40,"inconclusive: 17.8 µM [inhibitor, single point]"
same,Potency,TAB109,"inconclusive: 15.8 µM [inhibitor, single point]"
same,Potency,W2,"inconclusive: 19 µM [inhibitor, single point]"
CC(=O)Nc1cccc2c1c(Sc1ccc(Cl)cc1)c(C)n2CC(=O)O,Potency,[8],"inconclusive: 37.9 µM [falling, single point]"
same,Potency,[7],"inconclusive: 32.1 µM [inhibitor, single point]"
same,Potency,[9],active: 10.7 µM
CCCCc1nc(Cl)c(CO)n1Cc1ccc(-c2ccccc2-c2nn[nH]n2)cc1,Potency,[5],inactive
same,Potency,CP203,"inconclusive: 13.5 µM [inhibitor, partial curve]"
same,Potency,CP217,active: 12.6 µM
same,Potency,CP238,"inconclusive: 7.94 µM [inhibitor, partial curve]"
same,Potency,CP250,"inconclusive: 8.91 µM [inhibitor, single point]"
same,Potency,CP291,"inconclusive: 19 µM [inhibitor, single point]"
same,Potency,P94_40,active: 10 µM
same,Potency,TAB109,"inconclusive: 10 µM [inhibitor, partial curve]"
COc1cc(CCc2cc(NC(=O)c3ccc(N4CC(C)NC(C)C4)cc3)n[nH]2)cc(OC)c1 (centres undefined),Potency,[9],"inconclusive: 16.9 µM [inhibitor, partial curve]"
O=S(=O)(O)c1cc(I)c(O)c2ncccc12,Potency,WaGa,inactive
same,Potency,7G8,"inconclusive: 10 µM [inhibitor, single point]"
same,Potency,CP203,inactive
same,Potency,ICS,"inconclusive: 17.8 µM [inhibitor, single point]"
same,Potency,TAB109,inactive
CC(=O)NCc1c(I)c(NC(C)=O)c(I)c(C(=O)O)c1I,Potency,WaGa,inactive
same,Potency,7G8,inactive
same,Potency,P94_40,inactive
CC(C)(Oc1ccc(-c2nc3cc(Cl)ccc3s2)cc1)C(=O)O,Potency,[9],"inconclusive: 26.9 µM [inhibitor, single point]"
CO[C@]1(NC(=O)CSC(F)F)C(=O)N2C(C(=O)O)=C(CSc3nnnn3CCO)CO[C@H]21,Potency,WaGa,inactive
O=C(/C=C/c1ccccc1)OCc1ccccc1,Potency,[8],"inconclusive: 6.92 µM [falling, partial curve]"
same,Potency,WaGa,inactive
same,Potency,ICS,"inconclusive: 17.8 µM [inhibitor, single point]"
same,Potency,W2,inactive

# Reformatted with bars between the fields: part of the list above
smiles | measurement | setting | value
Fc1ccc(C(c2ccc(F)cc2)N2CCN(C/C=C/c3ccccc3)CC2)cc1 | Potency | [4] | inconclusive: 35.5 µM [inhibitor, partial curve, poor fit]
same | Potency | [1] | inconclusive: 8.49 µM [falling, single point]
same | Potency | [2] | inconclusive: 30.9 µM [cytotoxic, single point]
same | Potency | [5] | inconclusive: 16.8 µM [cytotoxic, partial curve, poor fit]
same | Potency | [6] | inconclusive: 26.6 µM [cytotoxic, single point]
same | Potency | 7G8 | active: 4.47 µM
same | Potency | CP217 | inconclusive: 11.2 µM [inhibitor, single point]
same | Potency | CP238 | inconclusive: 17.8 µM [inhibitor, single point]
same | Potency | CP250 | inconclusive: 12.6 µM [inhibitor, single point]
same | Potency | P94_40 | inconclusive: 10 µM [inhibitor, single point]
same | Potency | TAB109 | inconclusive: 11.2 µM [inhibitor, single point]
CC1=C(CO)C(=O)O[C@@H]([C@@H](C)[C@H]2CC[C@H]3[C@@H]4C[C@H]5O[C@]56[C@@H](O)C=CC(=O)[C@]6(C)[C@H]4CC[C@]23C)C1 | Potency | [7] | inactive
